Results reported in the supplement of paper PMC10338343.
± gives the standard deviation. The list shows a part of the results, in another mix than the full data. Many of these values have a large error.

tested on: MILI (PIWIL2) piRISC loaded with piRNA #1 (26 nt); assay: pre-steady-state target cleavage rate (min^-1); MIWI and MILI are mouse PIWI proteins and EfPiwi is from a freshwater sponge; tags in brackets are library labels; higher = faster piRNA-guided slicing of the target; settings: guide: piRNA #1 5'p-UGAGGUAGUAGGUUGUAUAGUAUCCA; auxiliary factor: 500 nM mouse GTSF1
How it was run: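 Active affinity-purified piRISC (1 nM) loaded with one synthetic guide was mixed with a transcribed, DNA-blocked target RNA library (0.1 nM), with or without 500 nM GTSF1 partner protein, in HEPES–potassium acetate buffer at 33 °C for 0–8 or 0–960 min. Uncleaved targets were sequenced, normalised to depth and to weakly complementary targets, and pooled across three trials, with k3 capped at 0.0001 min^-1. The pre-steady-state cleavage rate was determined with a burst-and-steady-state fit.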

Row | Sequence | pre-steady-state target cleavage rate
1 | GGAGACGAUACUAUACAACCUACUCCUCA | 0.0114 ± 0.0032
2 | GGAGAGGAUAGUAUACAACCUACUUCCUCA | 0.00152 ± 0.006
3 | GGAGACCUAAGUAUUCAACCUACUACCUCA | 0.0617 ± 0.0092
4 | GGAGACCUAUGAUUACAACCUAGAUGGAGA [g9:g17:cont:t1A] | 0.000166 ± 0.017
5 | GGAGACCUAUGAAUACUUGCUACUACCUCA | 0.000154 ± 0.018
6 | GGAGACCUAUGAAUACAACCUACUAGGAGA [g6:g18:cont:t1A] | 0.000307 ± 0.022
7 | GGAGACCUAUCUAUUCAACCUUCUACCUCA | 0.0069 ± 0.0028
8 | GGAGACCUAUGAUAACAACCUACUAGCACA | 0.000776 ± 0.0069
9 | GGAGACGAUACUUUACAAGCUACUACCUCA | 0.235 ± 0.015
10 | GGAGAGGAUACUAUACAACCAACUACGUCA | 0.00609 ± 0.0018
11 | GGAGUGGAUACUAUACUUGGAUGAUGGAGA [g15:g26:cont:t1A] | 0.000185 ± 0.028
12 | GGAGACCUAUCUUACAACCUACUACCUCA | 0.0336 ± 0.0082
13 | GGAGUGGAAACUAUUCAACCUACUACCUCA | 0.192 ± 0.017
14 | GGAGACCUAACUAUACAACGAUCUACCUCA | 0.000107 ± 0.058
15 | GGAGUGGAAACUAUACAACCUACUUCCUCA | 0.00207 ± 0.0039
16 | GGAGACCUUACUAUACAACCUACUACCAGA | 0.107 ± 0.017
17 | GGAGACCUAUGAUAACAACGUACUAGCUCA | 0.000787 ± 0.01
18 | GGAGACCUAUGUAUACAACCUUCUACGUCA | 0.00217 ± 0.0031
19 | GGAGACCUAACUAUAGAACCUACUACCUCA | 0.131 ± 0.021
20 | GGAGACGAUUCUAUACAUCCUACUACCUCA | 0.267 ± 0.018

Looked up one by one from above (2):
Row | Sequence | pre-steady-state target cleavage rate
19 | GGAGACCUAACUAUAGAACCUACUACCUCA | 0.131 ± 0.021
15 | GGAGUGGAAACUAUACAACCUACUUCCUCA | 0.00207 ± 0.0039

Later entries.

Row | Sequence | pre-steady-state target cleavage rate
21 | GGAGACCUAACUAUACAACCUAGUAGCUCA | 0.00103 ± 0.013
22 | GGAGACCUAUGAUAACAACCUACUUGGAGA [g7:g16:cont:t1A] | 0.000301 ± 0.015
23 | GGAGACCUUACUAUACCACCUACUACCUCA | 0.109 ± 0.014
24 | GGAGUGGAUACUAUACAUACCUACUACCUCA | 0.00115 ± 0.0071
25 | GGAGACCUAUGAUAUGAACUUACUACCUCA | 0.00034 ± 0.013
26 | GGAGACCUAUGAUAACAACCUAGUACCACA | 0.000222 ± 0.016
27 | GGAGACCUUACUAUACAUCCUACUACCUGA | 0.195 ± 0.033
28 | GGAGACGAUACUAUACACACCUACUACCUCA | 0.00188 ± 0.006
29 | GGAGACCUAUGAAUUCAACCUAGUACCUCA | 0.00028 ± 0.0096
30 | GGAGACCUAUGAAUACAAUCCUACUACCUCA | 0.000677 ± 0.0067
31 | GGAGACCUAUGAUAACAAGCAACUACCUCA | 0.000594 ± 0.0059
32 | GGAGAGGUUACUAUACAACCUAGUACCUCA | 0.00117 ± 0.007
33 | GGAGUGGAUACUAUACAACCUACGACCUCA | 0.0834 ± 0.0092
34 | GGAGACCUAUGAUAUCAACCUGACUACCUCA | 0.00105 ± 0.0082
35 | GGAGACCUAUGAUAACAACCUACUACCUCG [g2:g16:cont:t1G] | 0.00536 ± 0.0027
36 | GGAGACCUAUGAUAUGAACGUACAACCUCA | < 0.0001
37 | GGAGACCUAUGAUAUGUACCUAGUACCUGA | 0.000102 ± 0.013
38 | GGAGAGGAUACUAUACAACCUACUACCCUCA | 0.11 ± 0.017
39 | GGAGACCUAUGAUAUGAACCUACCUACCUCA | < 0.0001
40 | GGAGUCGAUACAAUACAACCUACUACCUCA | 0.177 ± 0.012
